Values from PubChem BioAssay AID743454 (Peter MacCallum Cancer Centre, 2014)
This is one part, drawn at random, of about 18,000 deposited reagents. Of all reagents, 450 (2.5%) were called active. 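Single biological run; no consistent viability z cut-off exists, so the class columns, not z-scores, define the calls.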 The numbers tell different reagents against one gene apart. Reagent sequences are not shown.

Screen: 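Genes whose loss kills vorinostat-resistant colon cancer cells under vorinostat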 (primary screen)
Cell system: human HCT116-VR colon cancer cells, selected for vorinostat resistance
Knock-down reagent: siRNA pool against human genes, 40 nM siRNA pool
Time to read-out: vorinostat for 24 h, read-out about 72 h after transfection
Challenge: vorinostat at 2.5 µM final
Read-out: 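Two measures, CellTiter-Fluor viability and luminescent caspase 3/7 activity, each as fold change against same-plate mock wells, mean of duplicates, then screen-wide robust z-score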
Scale: viability robust z-score: higher = more viable cells than screen typical; caspase robust z-score: higher = more caspase 3/7 activity than screen typical
Rule for the call: 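a knock-down is a hit when classed RV1 or RV2 for lowered viability, or CA1 or CA2 for caspase activation; those lethal without drug were dropped; hits were retested singly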

CALB1 → viability hit class: no change; caspase hit class: no change; viability robust z-score: -1.7; caspase robust z-score: 3.78; outcome: inactive
PEPD → viability hit class: no change; caspase hit class: no change; viability robust z-score: 0.02; caspase robust z-score: -0.45; outcome: inactive
ZCCHC8 → viability hit class: no change; caspase hit class: no change; viability robust z-score: 1; caspase robust z-score: -0.78; outcome: inactive
C1QTNF9 → viability hit class: no change; caspase hit class: no change; viability robust z-score: 0.22; caspase robust z-score: -0.83; outcome: inactive
ERBB2 → viability hit class: no change; caspase hit class: no change; viability robust z-score: 0.29; caspase robust z-score: -0.22; outcome: inactive
LMTK1 → viability hit class: no change; caspase hit class: no change; viability robust z-score: -0.4; caspase robust z-score: -0.2; outcome: inactive
ABI1 → viability hit class: no change; caspase hit class: no change; viability robust z-score: -1.19; caspase robust z-score: 0.44; outcome: inactive
SOD2 → viability hit class: no change; caspase hit class: no change; viability robust z-score: 0.28; caspase robust z-score: 0.12; outcome: inactive
LAT → viability hit class: no change; caspase hit class: no change; viability robust z-score: -0.69; caspase robust z-score: 3.79; outcome: inactive
LAMTOR3 → viability hit class: no change; caspase hit class: no change; viability robust z-score: -0.34; caspase robust z-score: 0.79; outcome: inactive
PRDX6 → viability hit class: no change; caspase hit class: no change; viability robust z-score: -0.05; caspase robust z-score: 1.14; outcome: inactive
MTERF2 → viability hit class: no change; caspase hit class: no change; viability robust z-score: 0.3; caspase robust z-score: 3.56; outcome: inactive
LARP6 → viability hit class: no change; caspase hit class: no change; viability robust z-score: 0.08; caspase robust z-score: 3.37; outcome: inactive
MRPL58 → viability hit class: no change; caspase hit class: no change; viability robust z-score: -0.4; caspase robust z-score: 1.46; outcome: inactive
SH2D3A → viability hit class: no change; caspase hit class: no change; viability robust z-score: 0.92; caspase robust z-score: 4.16; outcome: inactive
ISYNA1 → viability hit class: no change; caspase hit class: no change; viability robust z-score: -1.44; caspase robust z-score: 1.9; outcome: inactive
TMEM79 → viability hit class: no change; caspase hit class: no change; viability robust z-score: 0.44; caspase robust z-score: 0.34; outcome: inactive
SMAD7 → viability hit class: no change; caspase hit class: no change; viability robust z-score: 1.1; caspase robust z-score: -0.73; outcome: inactive
BOK → viability hit class: no change; caspase hit class: no change; viability robust z-score: 0.14; caspase robust z-score: -0.96; outcome: inactive
GLTPD2 → viability hit class: no change; caspase hit class: no change; viability robust z-score: 1.29; caspase robust z-score: -0.57; outcome: inactive
SMUG1 → viability hit class: no change; caspase hit class: no change; viability robust z-score: -0.86; caspase robust z-score: -0.35; outcome: inactive
PHLDA3 → viability hit class: no change; caspase hit class: no change; viability robust z-score: 0.47; caspase robust z-score: 1.1; outcome: inactive
OR52W1 → viability hit class: no change; caspase hit class: no change; viability robust z-score: 0.59; caspase robust z-score: 0.56; outcome: inactive
TXNRD3 #1 → viability hit class: no change; caspase hit class: no change; viability robust z-score: 0.74; caspase robust z-score: -0.5; outcome: inactive
TXNRD3 #2 → viability hit class: no change; caspase hit class: no change; viability robust z-score: 0.28; caspase robust z-score: 0.48; outcome: inactive
POU4F1 → viability hit class: no change; caspase hit class: no change; viability robust z-score: 0.31; caspase robust z-score: 1.55; outcome: inactive
GCFC2 → viability hit class: no change; caspase hit class: no change; viability robust z-score: -0.12; caspase robust z-score: 0.65; outcome: inactive
